# Values from PubChem BioAssay AID1159598 (NIAID, 2016)
# Aim: 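Knock-downs that alter flagellin-driven TNF reporter signal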
# System: human THP-1 B5 reporter cells made macrophage-like with PMA
# Reagents: single siRNA against human genes
# Timing: reporter read 48 to 72 hours after siRNA transfection
# Conditions: flagellin stimulation for 4 hours, dose not given
# Read-out: 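Firefly to renilla ratio from a TNF promoter reporter after 4 h flagellin, as robust z against negative controls averaged across replicates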
# Scale: TNF reporter z-score: higher = stronger TNF promoter activity than controls
# Active means: 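a row is called active when its replicate-mean z lies at or beyond 1.5 in either direction, so raised and lowered signal both count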
# Calls: active = reporter shifted beyond 1.5 z, up or down; inactive = reporter within 1.5 z of controls
# The whole screen tested 756 reagents; this is an unselected part. In the full data, 142 (19%) got an active call. 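Active includes both higher and lower reporter signal; each gene has six separate siRNAs, and no gene-level summary is deposited.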 A number with no mark means an inactive call. The numbers tell different reagents against one gene apart. Not stated in the record: the amount of reagent.
gene symbol,reagent no.,TNF reporter z-score
IRAK2 (interleukin 1 receptor associated kinase 2),1,0.589
IRAK2 (interleukin 1 receptor associated kinase 2),2,-1.37
IRAK2 (interleukin 1 receptor associated kinase 2),3,0.119
IRAK2 (interleukin 1 receptor associated kinase 2),4,0.135
IRAK2 (interleukin 1 receptor associated kinase 2),5,-1.91 (active)
IRAK2 (interleukin 1 receptor associated kinase 2),6,1.07
IKBKB (inhibitor of nuclear factor kappa B kinase subunit beta),1,0.403
IKBKB (inhibitor of nuclear factor kappa B kinase subunit beta),2,-0.783
IKBKB (inhibitor of nuclear factor kappa B kinase subunit beta),3,0.111
IKBKB (inhibitor of nuclear factor kappa B kinase subunit beta),4,0.164
IKBKB (inhibitor of nuclear factor kappa B kinase subunit beta),5,-0.104
IKBKB (inhibitor of nuclear factor kappa B kinase subunit beta),6,0.901
PIK3CD,1,-1.4
PIK3CD,2,-0.687
PIK3CD,3,0.651
PIK3CD,4,-1.73 (active)
PIK3CD,5,0.952
PIK3CD,6,-1.41
MAPK11 (mitogen-activated protein kinase 11),1,-0.888
MAPK11 (mitogen-activated protein kinase 11),2,-1.48
MAPK11 (mitogen-activated protein kinase 11),3,-0.0907
MAPK11 (mitogen-activated protein kinase 11),4,-0.783
MAPK11 (mitogen-activated protein kinase 11),5,0.185
MAPK11 (mitogen-activated protein kinase 11),6,-0.267
CD14 (CD14 molecule),1,0.67
CD14 (CD14 molecule),2,-0.223
CD14 (CD14 molecule),3,0.869
CD14 (CD14 molecule),4,0.134
CD14 (CD14 molecule),5,0.337
CD14 (CD14 molecule),6,-0.488
MYD88 (MYD88 innate immune signal transduction adaptor),1,-6.29 (active)
MYD88 (MYD88 innate immune signal transduction adaptor),2,-3.29 (active)
MYD88 (MYD88 innate immune signal transduction adaptor),3,-7.02 (active)
MYD88 (MYD88 innate immune signal transduction adaptor),4,-3.84 (active)
MYD88 (MYD88 innate immune signal transduction adaptor),5,0.374
MYD88 (MYD88 innate immune signal transduction adaptor),6,-1.02
ELF4 (E74 like ETS transcription factor 4),1,-3.69 (active)
ELF4 (E74 like ETS transcription factor 4),2,-0.989
ELF4 (E74 like ETS transcription factor 4),3,-0.247
ELF4 (E74 like ETS transcription factor 4),4,-0.631
ELF4 (E74 like ETS transcription factor 4),5,-1.87 (active)
ELF4 (E74 like ETS transcription factor 4),6,-0.939
TNF (tumor necrosis factor),1,-0.85
TNF (tumor necrosis factor),2,-0.876
TNF (tumor necrosis factor),3,-3.62 (active)
TNF (tumor necrosis factor),4,-0.0953
TNF (tumor necrosis factor),5,-1.53 (active)
TNF (tumor necrosis factor),6,-2.71 (active)
IRAK4 (interleukin 1 receptor associated kinase 4),1,-0.773
IRAK4 (interleukin 1 receptor associated kinase 4),2,0.405
IRAK4 (interleukin 1 receptor associated kinase 4),3,-0.698
IRAK4 (interleukin 1 receptor associated kinase 4),4,-0.977
IRAK4 (interleukin 1 receptor associated kinase 4),5,-0.226
IRAK4 (interleukin 1 receptor associated kinase 4),6,-0.124
MAP2K7 (mitogen-activated protein kinase kinase 7),1,-0.395
MAP2K7 (mitogen-activated protein kinase kinase 7),2,-1.88 (active)
MAP2K7 (mitogen-activated protein kinase kinase 7),3,-0.906
MAP2K7 (mitogen-activated protein kinase kinase 7),4,-1.14
MAP2K7 (mitogen-activated protein kinase kinase 7),5,-1.9 (active)
MAP2K7 (mitogen-activated protein kinase kinase 7),6,-0.977
TLR3 (toll like receptor 3),1,0.439
TLR3 (toll like receptor 3),2,-0.746
TLR3 (toll like receptor 3),3,-0.438
TLR3 (toll like receptor 3),4,-0.327
TLR3 (toll like receptor 3),5,-0.357
TLR3 (toll like receptor 3),6,-1.26
RIPK1 (receptor interacting serine/threonine kinase 1),1,-0.33
RIPK1 (receptor interacting serine/threonine kinase 1),2,0.276
RIPK1 (receptor interacting serine/threonine kinase 1),3,0.123
RIPK1 (receptor interacting serine/threonine kinase 1),4,-1.5
RIPK1 (receptor interacting serine/threonine kinase 1),5,-0.494
RIPK1 (receptor interacting serine/threonine kinase 1),6,-0.135
BTK (Bruton tyrosine kinase),1,0.276
BTK (Bruton tyrosine kinase),2,0.304
BTK (Bruton tyrosine kinase),3,-0.973
BTK (Bruton tyrosine kinase),4,-0.958
BTK (Bruton tyrosine kinase),5,-0.278
BTK (Bruton tyrosine kinase),6,0.228
"ETS1 (ETS proto-oncogene 1, transcription factor)",1,0.103
"ETS1 (ETS proto-oncogene 1, transcription factor)",2,-1.01
"ETS1 (ETS proto-oncogene 1, transcription factor)",3,-1.67 (active)
"ETS1 (ETS proto-oncogene 1, transcription factor)",4,-0.577
"ETS1 (ETS proto-oncogene 1, transcription factor)",5,0.965
"ETS1 (ETS proto-oncogene 1, transcription factor)",6,-1.83 (active)
IKBKG,1,-1.53 (active)
IKBKG,2,-1.08
IKBKG,3,-0.631
IKBKG,4,-1.44
IKBKG,5,0.575
IKBKG,6,-1.03
MAPKAPK2 (MAPK activated protein kinase 2),1,-0.00802
MAPKAPK2 (MAPK activated protein kinase 2),2,-0.55
MAPKAPK2 (MAPK activated protein kinase 2),3,-1.32
MAPKAPK2 (MAPK activated protein kinase 2),4,0.0719
MAPKAPK2 (MAPK activated protein kinase 2),5,0.558
MAPKAPK2 (MAPK activated protein kinase 2),6,-1.24
SP1 (Sp1 transcription factor),1,-2.21 (active)
SP1 (Sp1 transcription factor),2,-1.22
SP1 (Sp1 transcription factor),3,0.671
SP1 (Sp1 transcription factor),4,2.69 (active)
SP1 (Sp1 transcription factor),5,-0.125
SP1 (Sp1 transcription factor),6,-0.48
IL12A (interleukin 12A),1,0.709
IL12A (interleukin 12A),2,-0.995
IL12A (interleukin 12A),3,-0.115
IL12A (interleukin 12A),4,0.578
IL12A (interleukin 12A),5,-1.12
IL12A (interleukin 12A),6,0.0137
MAP3K1 (mitogen-activated protein kinase kinase kinase 1),1,-0.621
MAP3K1 (mitogen-activated protein kinase kinase kinase 1),2,-1.63 (active)
MAP3K1 (mitogen-activated protein kinase kinase kinase 1),3,-0.505
MAP3K1 (mitogen-activated protein kinase kinase kinase 1),4,-2.35 (active)
MAP3K1 (mitogen-activated protein kinase kinase kinase 1),5,-0.885
MAP3K1 (mitogen-activated protein kinase kinase kinase 1),6,-0.752

7 entries from above, arranged by “TNF reporter z-score”, descending:
gene symbol,reagent no.,TNF reporter z-score
MAPKAPK2 (MAPK activated protein kinase 2),5,0.558
MAPKAPK2 (MAPK activated protein kinase 2),4,0.0719
MAPKAPK2 (MAPK activated protein kinase 2),1,-0.00802
MAPKAPK2 (MAPK activated protein kinase 2),2,-0.55
MAPKAPK2 (MAPK activated protein kinase 2),6,-1.24
MAPKAPK2 (MAPK activated protein kinase 2),3,-1.32
SP1 (Sp1 transcription factor),1,-2.21 (active)
